The text below walks through data of article PMC7657459, “A second hybrid-binding domain modulates the activity of Drosophila ribonuclease H1”.

For series [1], the target named is T1, RNase H1 ΔII/III D252N D252N,del66-141 (Drosophila melanogaster) (UniProt A1Z769).
T1 sequence (looked up): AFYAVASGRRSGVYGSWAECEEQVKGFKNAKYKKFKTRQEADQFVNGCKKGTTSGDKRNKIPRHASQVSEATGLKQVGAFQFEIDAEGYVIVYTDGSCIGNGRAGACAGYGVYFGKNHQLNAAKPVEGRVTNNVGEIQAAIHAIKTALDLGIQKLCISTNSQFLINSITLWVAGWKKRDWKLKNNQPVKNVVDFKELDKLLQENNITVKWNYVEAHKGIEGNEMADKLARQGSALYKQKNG
Nature of the series: BLI. The conditions noted are these: BLI: 30 mM Tris-HCl pH 8.0, 100 mM KCl, 10% glycerol, 10 mM EDTA, 2 mM DTT, 400 ug/ml BSA, 30 C, recombinant protein, residues 17-333, protein details: C-terminal 6xHis.

The target of series [2] is T2, RNase H1 D252N (Drosophila melanogaster) (UniProt A1Z769).
T2 sequence (looked up): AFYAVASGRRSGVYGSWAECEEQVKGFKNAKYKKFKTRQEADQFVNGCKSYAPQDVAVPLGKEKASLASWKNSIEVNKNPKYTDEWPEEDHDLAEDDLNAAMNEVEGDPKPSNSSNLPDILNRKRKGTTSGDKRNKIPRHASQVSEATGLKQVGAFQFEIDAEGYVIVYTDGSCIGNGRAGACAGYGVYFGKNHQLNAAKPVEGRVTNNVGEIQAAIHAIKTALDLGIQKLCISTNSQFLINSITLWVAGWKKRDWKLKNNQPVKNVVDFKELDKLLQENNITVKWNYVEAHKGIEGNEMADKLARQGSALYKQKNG
Nature of the series: BLI. Conditions: BLI: 30 mM Tris-HCl pH 8.0, 100 mM KCl, 10% glycerol, 10 mM EDTA, 2 mM DTT, 400 ug/ml BSA, 30 C, recombinant protein.

Series [3] concerns the target T3, RNase H1 ΔIII-V (Drosophila melanogaster) (UniProt A1Z769).
T3 sequence (looked up): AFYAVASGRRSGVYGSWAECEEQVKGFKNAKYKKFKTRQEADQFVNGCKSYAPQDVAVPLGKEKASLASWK
In words: BLI. Conditions: 1:1 model; BLI: 30 mM Tris-HCl pH 8.0, 100 mM KCl, 10% glycerol, 10 mM EDTA, 2 mM DTT, 400 ug/ml BSA, 30 C; recombinant protein; residues 17-87; protein details: C-terminal 6xHis; label: 5' biotin; DNA:RNA hybrid.

In series [4] the target is T4, RNase H1 ΔIV/V (Drosophila melanogaster) (UniProt A1Z769).
T4 sequence (looked up): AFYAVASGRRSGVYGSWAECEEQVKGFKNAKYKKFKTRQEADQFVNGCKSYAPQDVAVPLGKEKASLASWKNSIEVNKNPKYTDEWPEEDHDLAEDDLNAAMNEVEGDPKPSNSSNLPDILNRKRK
Nature of the series: BLI. Conditions: 1:1 model; BLI: 30 mM Tris-HCl pH 8.0, 100 mM KCl, 10% glycerol, 10 mM EDTA, 2 mM DTT, 400 ug/ml BSA, 30 C; recombinant protein; residues 17-142; protein details: C-terminal 6xHis; label: 5' biotin; DNA:RNA hybrid.

In series [5] the target is T5, RNase H1 ΔI-III D252N (Drosophila melanogaster) (UniProt A1Z769).
T5 sequence (looked up): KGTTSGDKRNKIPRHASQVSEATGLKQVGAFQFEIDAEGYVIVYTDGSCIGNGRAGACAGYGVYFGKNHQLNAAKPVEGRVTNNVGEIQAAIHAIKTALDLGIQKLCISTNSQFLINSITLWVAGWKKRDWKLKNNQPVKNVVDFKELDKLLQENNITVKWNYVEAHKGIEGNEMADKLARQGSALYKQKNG
In words: BLI. The conditions noted are these: 1:1 model; BLI: 30 mM Tris-HCl pH 8.0, 100 mM KCl, 10% glycerol, 10 mM EDTA, 2 mM DTT, 400 ug/ml BSA, 30 C; recombinant protein; residues 142-333; protein details: C-terminal 6xHis; label: 5' biotin; DNA:RNA hybrid.

Series [6] concerns the target T6, RNase H1 ΔII-V (Drosophila melanogaster) (UniProt A1Z769).
T6 sequence (looked up): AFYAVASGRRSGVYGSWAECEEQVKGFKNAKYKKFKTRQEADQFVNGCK
In words: BLI. Conditions: 1:1 model; BLI: 30 mM Tris-HCl pH 8.0, 100 mM KCl, 10% glycerol, 10 mM EDTA, 2 mM DTT, 400 ug/ml BSA, 30 C; recombinant protein; residues 17-65; protein details: C-terminal 6xHis; label: 5' biotin; DNA:RNA hybrid.

The target in series [7] is T7, RNase H1 ΔI/II D252N (Drosophila melanogaster) (UniProt A1Z769).
T7 sequence (looked up): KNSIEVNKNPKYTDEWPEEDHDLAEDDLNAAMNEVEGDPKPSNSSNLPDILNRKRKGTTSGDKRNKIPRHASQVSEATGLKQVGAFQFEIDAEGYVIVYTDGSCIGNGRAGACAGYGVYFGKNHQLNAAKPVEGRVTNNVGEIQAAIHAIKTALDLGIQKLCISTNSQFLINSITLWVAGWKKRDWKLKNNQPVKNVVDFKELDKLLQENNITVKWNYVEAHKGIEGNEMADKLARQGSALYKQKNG
Nature of the series: BLI. The conditions noted are these: 1:1 model; BLI: 30 mM Tris-HCl pH 8.0, 100 mM KCl, 10% glycerol, 10 mM EDTA, 2 mM DTT, 400 ug/ml BSA, 30 C; recombinant protein; residues 87-333; protein details: C-terminal 6xHis; label: 5' biotin; DNA:RNA hybrid.

For series [8], the target named is T8, mtSSB (Drosophila melanogaster) (UniProt P54622).
T8 sequence (looked up, limits assumed): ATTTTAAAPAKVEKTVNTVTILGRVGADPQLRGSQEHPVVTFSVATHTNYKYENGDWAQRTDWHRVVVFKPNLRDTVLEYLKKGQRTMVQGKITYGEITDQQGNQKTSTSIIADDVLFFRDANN
In words: EMSA. Conditions: with 1 uM RNase H1 D252N and 30-bp hybrid present; EMSA: 25 mM Tris-HCl pH 8.0, 25 mM KCl, 1 mM DTT, 10 mM EDTA, 20 ug/ml BSA, room temperature, 30 min; recombinant protein; single-stranded DNA. A general note: Mobility shift assays separate free from complexed probe on a gel.

In series [9] the target is T1, RNase H1 ΔII/III D252N D252N,del66-141 (Drosophila melanogaster). In words: EMSA. The conditions noted are these: supershift at high protein; EMSA: 25 mM Tris-HCl pH 8.0, 25 mM KCl, 1 mM DTT, 10 mM EDTA, 20 ug/ml BSA, room temperature, 30 min; recombinant protein; residues 17-333; protein details: C-terminal 6xHis.
In series [10] the target is T5, RNase H1 ΔI-III D252N (Drosophila melanogaster). In words: EMSA. Conditions: supershift at high protein; EMSA: 25 mM Tris-HCl pH 8.0, 25 mM KCl, 1 mM DTT, 10 mM EDTA, 20 ug/ml BSA, room temperature, 30 min; recombinant protein; residues 142-333; protein details: C-terminal 6xHis.
Series [11] deals with T2, RNase H1 D252N (Drosophila melanogaster). Nature of the series: EMSA. The conditions noted are these: supershift at high protein; EMSA: 25 mM Tris-HCl pH 8.0, 25 mM KCl, 1 mM DTT, 10 mM EDTA, 20 ug/ml BSA, room temperature, 30 min; recombinant protein; residues 17-333; protein details: C-terminal 6xHis (+2 vector residues).
Series [12] has as its target T7, RNase H1 ΔI/II D252N (Drosophila melanogaster). In words: EMSA. Conditions: supershift at high protein; EMSA: 25 mM Tris-HCl pH 8.0, 25 mM KCl, 1 mM DTT, 10 mM EDTA, 20 ug/ml BSA, room temperature, 30 min; recombinant protein; residues 87-333; protein details: C-terminal 6xHis.

Construct, isoform or probe ends are uncertain for at least one entry. For some of these results: At least one verdict was read from the data and is not stated in words by the source. Tags and fusion partners may be left off the protein sequences shown.

Broadly, the Kd is the free concentration of one partner at which half of the binding sites on the other are occupied at equilibrium, for simple one-to-one binding. In the case of “AAGTAGGGCACGCTATAGTTAGTCTTCGCG (double strand) [30-bp dsDNA]”, the Kd came to 1900 nM in series [1] (KD1, 2:1 model, label: 5' biotin on S3 for BLI); 120 nM in series [1] (KD2, 2:1 model, label: 5' biotin on S3 for BLI); 13000 nM in [2] (KD1, 2:1 model, residues 17-333, protein details: C-terminal 6xHis (+2 vector residues), label: 5' biotin on S3 for BLI); 340 nM in series [2] (KD2, 2:1 model, residues 17-333, protein details: C-terminal 6xHis (+2 vector residues), label: 5' biotin on S3 for BLI).

Take “AAGUAGGGCACGCUAUAGUUAGUCUUCGCG / CGCGAAGACUAACUAUAGCGUGCCCUACUU [30-bp dsRNA]”: the Kd worked out at 2100 nM in [1] (KD1, 2:1 model, label: 5' biotin on S2 for BLI); 940 nM in [1] (KD2, 2:1 model, label: 5' biotin on S2 for BLI); 2200 nM in [2] (KD1, 2:1 model, residues 17-333, protein details: C-terminal 6xHis (+2 vector residues), label: 5' biotin on S2 for BLI); 750 nM in [2] (KD2, 2:1 model, residues 17-333, protein details: C-terminal 6xHis (+2 vector residues), label: 5' biotin on S2 for BLI).

For the sequence “CGCGAAGACUAACUAUAGCGUGCCCUACUU / AAGTAGGGCACGCTATAGTTAGTCTTCGCG [30-bp RNA/DNA hybrid (BLI)]”, the Kd in series [3] came out at 170 nM; in [1] (KD1, 2:1 model, label: 5' biotin, DNA:RNA hybrid), 110 nM; in [1] (KD2, 2:1 model, label: 5' biotin, DNA:RNA hybrid), 0.65 nM; in series [4], 370 nM; in [5], 720 nM; in series [2] (KD1, 2:1 model, residues 17-333, protein details: C-terminal 6xHis (+2 vector residues), label: 5' biotin, DNA:RNA hybrid) it was 550 nM. Moreover, the Kd turned out to be 0.22 nM in [2] (KD2, 2:1 model (text: 0.23), residues 17-333, protein details: C-terminal 6xHis (+2 vector residues), label: 5' biotin, DNA:RNA hybrid); 140 nM in series [6]; 750 nM in series [7].

Regarding “TCATCAGTAGAAGAGACCATGAGGGCTCCCTGACAGATCCCTATGTCGCTTCCGCCGTCA [60nt_ssDNA]”, in series [8], the binding result is recorded as “binds”.

On to “TGACGGCGGAAGCGACATAGGGATCTGGGGATGAAGCAATCCAACGCTACGCATGTGAAGTACAGCCCTCATGGTCTCTTCTACTGATGA / TCATCAGTAGAAGAGACCATGAGGGCTCCCAAGTAGGGCACGCTATAGTTAGTCTTCGCGTGACAGATCCCTATGTCGCTTCCGCCGTCA / CGCGAAGACUAACUAUAGCGUGCCCUACUU [R-loop 90 nt with 30-nt RNA]”, for which the binding result in [9], in [10], in series [11] and in series [12] was “binds” each time.
